Assay results: paper doi:10.1101/2025.10.25.683839
Results are given in words; binding and its absence hold for the method and conditions named. Binding seen in cells or lysates may run through a third protein. Some binding calls cover weakened binding; strength is not graded here.

Molecular target: T1, STimulator of INterferon Gene (STING) (mouse (endogenous in BMDMs)) (UniProt Q3TBT3)
T1 sequence: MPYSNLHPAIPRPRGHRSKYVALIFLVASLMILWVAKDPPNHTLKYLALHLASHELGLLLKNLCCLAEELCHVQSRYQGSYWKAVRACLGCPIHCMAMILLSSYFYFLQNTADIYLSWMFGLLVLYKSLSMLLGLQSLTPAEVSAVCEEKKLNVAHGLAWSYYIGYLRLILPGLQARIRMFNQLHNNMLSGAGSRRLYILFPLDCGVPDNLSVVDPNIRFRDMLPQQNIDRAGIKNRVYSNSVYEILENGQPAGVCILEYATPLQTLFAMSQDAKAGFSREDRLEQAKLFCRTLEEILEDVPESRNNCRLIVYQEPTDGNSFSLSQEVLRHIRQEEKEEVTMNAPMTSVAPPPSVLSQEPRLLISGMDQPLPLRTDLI
Test: co-IP

B1: Heme oxygenase-1 (protein, UniProt P14901 1-289)
chain: MERPQPDSMPQDLSEALKEATKEVHIQAENAEFMKNFQKGQVSREGFKLVMASLYHIYTALEEEIERNKQNPVYAPLYFPEELHRRAALEQDMAFWYGPHWQEIIPCTPATQHYVKRLHEVGRTHPELLVAHAYTRYLGDLSGGQVLKKIAQKAMALPSSGEGLAFFTFPNIDSPTKFKQLYRARMNTLEMTPEVKHRVTEEAKTAFLLNIELFEELQVMLTEEHKDQSPSQMASLRQRPASLVQDTAPAETPRGKPQISTSSSQTPLLQWVLTLSFLLATVAVGIYAM
binding: binds
